PubChem BioAssay AID1224830 | NIAID | 2016

Purpose: 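Genes whose knock-down alters the TNF-alpha reporter response to LPS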 (primary screen)
System: human THP-1 monocytic leukaemia cells, TNF dual-luciferase reporter clone, PMA-differentiated to macrophage-like cells
Reagent: siRNA pool against human genes, 50 nM
Time to read-out: LPS for 4 h, given about 3 days after siRNA transfection
Challenge: bacterial LPS (TLR4 ligand), 10 ng/ml
Detection: 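TNF firefly reporter luminescence divided by renilla, normalised to the plate median, then turned into a robust z-score for each replicate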
Reading the numbers: TNF reporter robust z-score: higher = stronger TNF reporter response to LPS
Hit rule: 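Each well counts as active if its z-score is over 2.8 or under -1.5; controls are left without a call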
Shown is an unselected part of about 18,000 deposited reagents. About 2,900 of them (16%) were called active. 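Calls are made per well; low scores hint the gene aids the LPS response, high scores that it dampens it.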 Repeated entries: four replicate wells of each siRNA pool. No sequences are given here.

target	TNF reporter robust z-score	call
ERVFRD-1	-0.08	inactive
ERVFRD-1	-0.3	inactive
ERVFRD-1	0.08	inactive
ERVFRD-1	-0.68	inactive
MAPK14	1.78	inactive
MAPK14	2.12	inactive
MAPK14	1.51	inactive
MAPK14	-0.04	inactive
TNFRSF10D	-0.08	inactive
TNFRSF10D	1	inactive
TNFRSF10D	0.04	inactive
TNFRSF10D	1.21	inactive
PRKACA	2	inactive
PRKACA	0.91	inactive
PRKACA	0.78	inactive
PRKACA	0.05	inactive
PI4KAP2	1.25	inactive
PI4KAP2	1.31	inactive
PI4KAP2	-0.18	inactive
PI4KAP2	0.6	inactive
C22orf31	-1.3	inactive
C22orf31	-0.62	inactive
C22orf31	-0.52	inactive
C22orf31	-1.31	inactive
TCP11L2	-0.58	inactive
TCP11L2	-0.59	inactive
TCP11L2	-1.32	inactive
TCP11L2	-0.25	inactive
KNSTRN	0.09	inactive
KNSTRN	-0.12	inactive
KNSTRN	0.39	inactive
KNSTRN	0.87	inactive
EIF3J	-0.58	inactive
EIF3J	-1.17	inactive
EIF3J	-1.14	inactive
EIF3J	-1.57	active

Reformatted: entries from further up.
{"target":"TNFRSF10D","TNF reporter robust z-score":1,"call":"inactive"}
{"target":"TNFRSF10D","TNF reporter robust z-score":0.04,"call":"inactive"}
{"target":"TNFRSF10D","TNF reporter robust z-score":1.21,"call":"inactive"}
{"target":"PRKACA","TNF reporter robust z-score":2,"call":"inactive"}

More entries:
target	TNF reporter robust z-score	call
ZNF524	0.52	inactive
ZNF524	0.74	inactive
ZNF524	1.25	inactive
ZNF524	-1.01	inactive
ICAM3	-0.16	inactive
ICAM3	0.97	inactive
ICAM3	-0.53	inactive
ICAM3	0.19	inactive
AGT	-0.16	inactive
AGT	-1.07	inactive
AGT	-0.71	inactive
AGT	-0.85	inactive
CPNE9	1.02	inactive
CPNE9	-0.41	inactive
CPNE9	-0.88	inactive
CPNE9	-0.45	inactive
CPNE9	1.36	inactive
CPNE9	0.64	inactive
CPNE9	-0.65	inactive
CPNE9	0.86	inactive
VPS37A	0.41	inactive
VPS37A	1.27	inactive
VPS37A	0.19	inactive
VPS37A	-0.45	inactive
STK33	0.03	inactive
STK33	0.57	inactive
STK33	-0.26	inactive
STK33	0.49	inactive
ACTL8	-0.94	inactive
ACTL8	1.45	inactive
ACTL8	0.38	inactive
ACTL8	0.19	inactive
SCARB2	-0.97	inactive
SCARB2	-0.31	inactive
SCARB2	-0.91	inactive
SCARB2	-1.09	inactive
MED11	-0.21	inactive
MED11	-0.29	inactive
MED11	-0.81	inactive
MED11	0.24	inactive
